# From patent US12458630
# These are yes or no findings as the source states them, for the method shown. Binding seen in cells or lysates may run through a third protein. Some binding calls cover weakened binding; strength is not graded here. Sequences can lack the tags named with a protein.
# T1: Flag-STX17 (Flag-tagged syntaxin 17), P56962
# T1 chain: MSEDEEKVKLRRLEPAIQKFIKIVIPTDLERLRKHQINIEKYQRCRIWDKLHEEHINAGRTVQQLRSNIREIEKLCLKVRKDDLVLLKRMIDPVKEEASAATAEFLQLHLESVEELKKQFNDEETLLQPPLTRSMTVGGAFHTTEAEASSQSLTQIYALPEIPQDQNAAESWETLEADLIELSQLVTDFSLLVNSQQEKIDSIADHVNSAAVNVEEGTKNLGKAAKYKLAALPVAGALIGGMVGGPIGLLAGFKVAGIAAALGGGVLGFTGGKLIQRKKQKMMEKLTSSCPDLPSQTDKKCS
# B1: endogenous VAMP8 of MIA PaCa-2 cells, Q9BV40 1-100 (protein, human, UniProt Q9BV40 1-100, looked up)
# chain: MEEASEGGGNDRVRNLQSEVEGVKNIMTQNVERILARGENLEHLRNKTEDLEATSEHFKTTSQKVARKFWWKNVKMIVLICVIVFIIILFIVLFATGAFS
# What was measured:
# [1] = molecular target: T1, Flag-STX17 (Flag-tagged syntaxin 17), …; test: co-IP, WT and IKKα KD MIA PaCa-2 cells (FIG. 6A); conditions: remark: other sources report otherwise
# [2] = molecular target: T1, Flag-STX17 (Flag-tagged syntaxin 17), …; test: co-IP, MIA PaCa-2 lysate (FIG. 1E); conditions: remark: other sources report otherwise
binder,measurement,setting,value
B1,binding,[1],binds
same,binding,[2],binds
